The values that follow come from article PMC9091257.

Chains of the proteins cited; added tags and fusions are not shown.
UniProt P32121: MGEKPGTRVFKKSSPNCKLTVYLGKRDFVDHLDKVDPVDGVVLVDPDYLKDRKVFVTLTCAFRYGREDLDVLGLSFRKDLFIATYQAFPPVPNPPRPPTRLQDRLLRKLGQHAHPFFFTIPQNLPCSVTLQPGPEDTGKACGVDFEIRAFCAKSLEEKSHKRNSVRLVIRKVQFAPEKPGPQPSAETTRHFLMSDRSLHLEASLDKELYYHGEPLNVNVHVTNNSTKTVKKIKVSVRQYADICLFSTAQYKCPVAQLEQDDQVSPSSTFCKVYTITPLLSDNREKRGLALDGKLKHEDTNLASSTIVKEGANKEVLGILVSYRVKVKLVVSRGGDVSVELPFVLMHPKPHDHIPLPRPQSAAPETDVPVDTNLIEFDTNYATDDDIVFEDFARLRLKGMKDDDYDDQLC

These are yes or no findings as the source states them, for the method shown. Binding seen in cells or lysates may run through a third protein. Some results given as binding are weak or reduced against the parent protein; the word gives no strength.

For this assay, the target named is muscarinic acetylcholine receptor M3, mCitrine-tagged, wild type (M3R-mCit wt) (human) (UniProt P20309). The assay can be described thus: FRET or BRET; single-cell FRET imaging between β-arrestin2-mTurq and M3R-mCit in HEK293T cells co-transfected with GRK2; cells superfused with acetylcholine, 30 s per concentration; room temperature; extracellular buffer pH 7.3; amplitudes corrected for relative expression levels.

As for “β-arrestin2-mTurq (from UniProt P32121 1-409)”, the binding result is reported as “binds”.
